The values that follow come from PubChem BioAssay AID1487 (National Center for Advancing Translational Sciences (NCATS), 2009).

The list shows a part of the results. The main result of the screen is listed elsewhere. These columns were measured beside it and carry no call. Compounds called inactive in the main read-out are mostly missing here. Potencies come from curve fits of mixed quality, noted in brackets.

The assay can be described thus: qHTS Assay for Modulators of Lamin A Splicing. The conditions noted are these: HeLa LMNA splicing GFP/RFP minigene ratio, 48 h. The method, boiled down:
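S3 HeLa cells stably expressing lamin A-EGFP splicing minigene plus DsRed2, 600 cells/well, 48 h compound exposure at 37C. Laser-scanning cytometry; analysed as GFP (500-530 nm)/RFP (575-640 nm) total intensity ratio; 0.5% DMSO vehicle.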

The mark [1] stands for this setting: measured here: GFP splicing reporter channel.
Setting [2] is: measured here: RFP viability control channel.

`O=C1C(Cc2c[nH]c3ccccc23)NC(=S)N1Cc1ccccc1` (configuration not stated): under setting [1], the AC50 is 3.98 µM [rising, single point].

Take `Cc1cc(NC(=O)Nc2cccc([N+](=O)[O-])c2)no1`: the AC50 under setting [1] is 0.02 µM [falling, full curve, poor fit].

In the case of `COc1ccccc1N1CCN(C(=O)c2cc3ccc4ccc(C)[nH]c4c3n2)CC1`, the half-maximal activity concentration (AC50) under setting [2] was 14.1 µM [rising, single point].

Take `O=S(=O)(c1cccc2nsnc12)N1CCN(C/C=C/c2ccccc2)CC1`: the half-maximal activity concentration (AC50) was 25.1 µM [rising, partial curve, poor fit] under setting [1] and 35.5 µM [rising, single point] under setting [2].

As for `O=C(COc1ccccc1)Nc1ccc2c(c1)C(=O)N(CC1CCCO1)C2=O` (configuration not stated), the concentration at half-maximal activity (AC50) under setting [1] is 0.282 µM [rising, full curve].

`Cc1cccc(C2(c3cccc(C)c3)CC2C(=O)Nc2ccc([N+](=O)[O-])cc2O)c1` (configuration not stated): the AC50 is 35.5 µM [falling, single point] under setting [1] and 2.82 µM [rising, single point] under setting [2].

Turning to `COc1cc2cc(CN(CCCN3CCOCC3)C(=O)Nc3ccccc3F)c(=O)[nH]c2cc1OC`, the AC50 under setting [1] is 0.282 µM [rising, full curve] and the AC50 under setting [2] was 0.2 µM [rising, full curve].

`Cc1nc(Nc2ccc(S(=O)(=O)N3CCCC3)cc2)c2nnn(Cc3ccccc3)c2n1`: under setting [2], the concentration at half-maximal activity (AC50) is 0.316 µM [rising, partial curve, poor fit].

Turning to `COc1ccc(C(=O)O/N=C(\N)Cc2ccc(Cl)c(Cl)c2)cc1OC`, the AC50 under setting [1] is 25.1 µM [falling, partial curve] and the concentration at half-maximal activity (AC50) under setting [2] is 22.4 µM [falling, partial curve].

Consider `Cc1nc(N2CCN(c3ccccc3)CC2)c2c3c(sc2n1)CCC3`, for which the AC50 under setting [1] is 14.1 µM [rising, partial curve] and the AC50 under setting [2] is 28.2 µM [rising, single point].

For the molecule `Cc1cccc(-n2c(O)c(C=NCCCN3CCOCC3)c3ccccc3c2=O)c1`, the AC50 under setting [2] is 17.8 µM [rising, single point].

As to `CCC(=O)Nc1ccc(C(=O)NCc2ccccn2)cc1`, the concentration at half-maximal activity (AC50) under setting [2] was 0.0251 µM [falling, full curve, poor fit].

In the case of `Cc1cc(C)n(Cc2ccc(NC(=O)c3nn(C)cc3[N+](=O)[O-])cc2)n1`, the AC50 under setting [1] was 28.2 µM [falling, single point].

With `Cn1c(NC(=O)c2ccccc2NC(=O)C(C)(C)C)nc2ccccc21`, the concentration at half-maximal activity (AC50) under setting [2] is 20 µM [rising, partial curve, poor fit].

Take `COc1ccc(NC(=O)c2ccc(Cl)c(S(=O)(=O)N3CCc4ccccc4C3)c2)cn1`: under setting [1], the AC50 is 3.98 µM [rising, single point].

On to `COc1ccc2[nH]cc(C(O)CN3CCN(c4ccccc4)CC3)c2c1` (configuration not stated), for which the AC50 under setting [2] was 22.4 µM [rising, single point].

Take `COc1ccccc1C(=O)Nc1c(C)n(C)n(-c2ccccc2)c1=O`: the AC50 under setting [1] was 5.62 µM [rising, single point] and the half-maximal activity concentration (AC50) under setting [2] is 5.62 µM [rising, single point].

In the case of `Cc1cc2c(cc(C(=O)OCC(=O)NCc3ccco3)n2C)s1`, the AC50 runs as follows: under setting [1], 15.8 µM [falling, single point]; under setting [2], 17.8 µM [falling, single point].

Turning to `CC(C)(C)C(=O)Nc1nc(-c2ccc3c(c2)OCO3)cs1`, the AC50 under setting [2] is 31.6 µM [rising, single point].

Take `O=C(CN1C(=O)CCSc2ccccc21)Nc1cccc(F)c1`: the concentration at half-maximal activity (AC50) under setting [2] was 14.1 µM [rising, single point].

On to `CN1CCC(N(C)C(=S)NCCc2ccccc2)CC1`, for which the AC50 is, setting by setting: under setting [1], 0.0141 µM [rising, full curve, poor fit]; under setting [2], 0.794 µM [falling, partial curve, poor fit].

Consider `Cc1ccc(-c2csc3ncnc(N4CCc5ccccc5C4)c23)cc1`, for which the concentration at half-maximal activity (AC50) under setting [2] is 5.62 µM [rising, partial curve, poor fit].

On to `COc1cnc(-c2ccccn2)[nH]c1=O`, for which the AC50 under setting [1] is 3.16 µM [rising, full curve, poor fit] and the half-maximal activity concentration (AC50) under setting [2] was 0.794 µM [rising, full curve].

Consider `FC(F)(F)c1ccccc1-c1cc(NCc2ccccc2)ncn1`, for which the AC50 under setting [1] was 5.01 µM [falling, partial curve].

For the molecule `N#Cc1cc([N+](=O)[O-])ccc1Oc1cccc(/C=N/NC(=O)c2cccc(Cl)c2)c1`, the AC50 under setting [2] was 15.8 µM [rising, single point].

Consider `O=C(c1ccco1)N1N=C(c2ccc(Br)cc2)CC1(O)C(F)(F)F` (configuration not stated), for which the AC50 under setting [1] was 5.62 µM [falling, partial curve, poor fit].

With `Cc1ccc(CN2CCN(Cc3c(C)nn(C(C)C)c3C)CC2CCO)o1` (configuration not stated), the AC50 under setting [1] was 22.4 µM [falling, single point].

With `CCOC(=O)C1CCN(c2ncnc3c2oc2ccc(Cl)cc23)CC1`, the AC50 under setting [1] is 11.2 µM [rising, partial curve, poor fit].

On to `O=S1(=O)C=C(Sc2nnc(-c3ccccc3)o2)c2ccccc21`, for which, under setting [2], the half-maximal activity concentration (AC50) was 5.62 µM [rising, single point].

For the molecule `O=C(NCC1CCCO1)/C(=C\c1cccc([N+](=O)[O-])c1)NC(=O)c1ccccc1` (configuration not stated), the AC50 is 0.794 µM [rising, partial curve, poor fit] under setting [1] and 0.0316 µM [rising, full curve, poor fit] under setting [2].

For `CC(=O)Cc1nsc(NC(=O)c2ccc(COc3ccc(C)cc3)o2)n1`, the AC50 under setting [2] is 35.5 µM [rising, single point].

Consider `CC(C)CCNc1nc(N)c([N+](=O)[O-])c(NCC2CCCO2)n1` (configuration not stated), for which the AC50 under setting [2] was 15.8 µM [rising, single point].

`C/C(=N\OCC(=O)Nc1ccccc1Br)c1cccs1`: the AC50 under setting [2] is 0.00891 µM [rising, full curve, poor fit].

In the case of `Cc1ccc(OCCNS(=O)(=O)c2ccc(N3CCCC3=O)cc2)cc1`, the half-maximal activity concentration (AC50) under setting [2] is 12.6 µM [rising, partial curve].

Turning to `O=C(NCCNCc1ccccn1)c1ccco1`, the AC50 under setting [2] is 3.16 µM [falling, full curve, poor fit].

In the case of `CC(NC(=O)c1ccccc1O)c1ccccc1` (configuration not stated), under setting [2], the AC50 is 14.1 µM [rising, single point].

For `C=CCNC(=S)NCC1COc2ccccc2O1` (configuration not stated), the half-maximal activity concentration (AC50) under setting [1] was 17.8 µM [rising, single point].
